PubChem BioAssay AID504804, Drosophila RNAi Screening Center – 2011
In all, the deposit lists about 19,000 reagents; this is an unselected part of those with a known target gene and a result. In the full data, 47 (0.25%) were called active. 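Signals are raw, not normalised; exact z-scores behind calls not deposited; actives needed confirmation, so some wells reaching 2 SD are inactive.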 Unmarked entries are inactive. Names joined by + are all predicted targets of the reagent. No sequences are given here.

Test: 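dsRNAs that improve Kc cell survival under doxorubicin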 (primary screen)
Cells: Drosophila Kc cells
Reagent: long dsRNA against Drosophila genes, 0.5 µg dsRNA per well
Timing: 96 h (48 h knock-down, then 48 h drug)
Conditions: doxorubicin 5 µg/ml for 48 h, added 48 h after dsRNA
Measured: 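Viability measured as cellular ATP by luminescence after 48 h knock-down then 48 h doxorubicin at 5 µg/ml; unnormalised plate counts for each replicate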
Scale: raw ATP luminescence: higher = more viable cells, protection from doxorubicin
Active means: 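Active when both duplicate wells lie at least 2 SD above the plate mean and protection is confirmed by rescreening and independent dsRNAs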

p47 [DRSC06046]: raw ATP luminescence, replicate 1 = 46847; raw ATP luminescence, replicate 2 = 41220
fuss [DRSC17200]: raw ATP luminescence, replicate 1 = 62700; raw ATP luminescence, replicate 2 = 61170
Nf-YB [DRSC02057]: raw ATP luminescence, replicate 1 = 47860; raw ATP luminescence, replicate 2 = 46167
Cow [DRSC13601]: raw ATP luminescence, replicate 1 = 1.48e5; raw ATP luminescence, replicate 2 = 1.57e5
Cow [DRSC14680]: raw ATP luminescence, replicate 1 = 70490; raw ATP luminescence, replicate 2 = 58860
CG15743 [DRSC19709]: raw ATP luminescence, replicate 1 = 3.60e5; raw ATP luminescence, replicate 2 = 3.63e5
CG13067 [DRSC09950]: raw ATP luminescence, replicate 1 = 36837; raw ATP luminescence, replicate 2 = 28347
CG33181 [DRSC17971]: raw ATP luminescence, replicate 1 = 40530; raw ATP luminescence, replicate 2 = 40360
Hsp70Bb + Hsp70Ba + Hsp70Bc + 1 more [DRSC21247]: raw ATP luminescence, replicate 1 = 3.01e5; raw ATP luminescence, replicate 2 = 2.92e5
Hsp70Bb + Hsp70Ba + Hsp70Bc + 1 more [DRSC21248]: raw ATP luminescence, replicate 1 = 2.74e5; raw ATP luminescence, replicate 2 = 2.87e5
CG14042 + SP555 [DRSC02367]: raw ATP luminescence, replicate 1 = 22693; raw ATP luminescence, replicate 2 = 23937
CG14042 + SP555 [DRSC03428]: raw ATP luminescence, replicate 1 = 24003; raw ATP luminescence, replicate 2 = 30643
CG13575 [DRSC04211]: raw ATP luminescence, replicate 1 = 55947; raw ATP luminescence, replicate 2 = 54157

Continued; the last 2 above are carried over.
CG14042 + SP555 [DRSC03428]: raw ATP luminescence, replicate 1 = 24003; raw ATP luminescence, replicate 2 = 30643
CG13575 [DRSC04211]: raw ATP luminescence, replicate 1 = 55947; raw ATP luminescence, replicate 2 = 54157
eIF4E1 [DRSC11342]: raw ATP luminescence, replicate 1 = 31047; raw ATP luminescence, replicate 2 = 30150
CG3420 [DRSC04995]: raw ATP luminescence, replicate 1 = 30843; raw ATP luminescence, replicate 2 = 50993
CG13998 [DRSC02330]: raw ATP luminescence, replicate 1 = 24917; raw ATP luminescence, replicate 2 = 25447
capu [DRSC00208]: raw ATP luminescence, replicate 1 = 2.84e5; raw ATP luminescence, replicate 2 = 3.48e5
capu [DRSC00209]: raw ATP luminescence, replicate 1 = 2.90e5; raw ATP luminescence, replicate 2 = 2.99e5
capu [DRSC00434]: raw ATP luminescence, replicate 1 = 23143; raw ATP luminescence, replicate 2 = 30423
capu [DRSC00807]: raw ATP luminescence, replicate 1 = 84447; raw ATP luminescence, replicate 2 = 54077
